Chains of the proteins cited; added tags and fusions are not shown.
UniProt Q96FF9: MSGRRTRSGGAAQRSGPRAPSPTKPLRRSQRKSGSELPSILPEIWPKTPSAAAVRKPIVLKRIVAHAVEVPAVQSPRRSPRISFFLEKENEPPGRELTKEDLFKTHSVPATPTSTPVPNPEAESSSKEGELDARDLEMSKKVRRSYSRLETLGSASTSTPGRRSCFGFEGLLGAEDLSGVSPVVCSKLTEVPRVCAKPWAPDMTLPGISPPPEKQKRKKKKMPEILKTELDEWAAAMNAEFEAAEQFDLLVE
UniProt O60216: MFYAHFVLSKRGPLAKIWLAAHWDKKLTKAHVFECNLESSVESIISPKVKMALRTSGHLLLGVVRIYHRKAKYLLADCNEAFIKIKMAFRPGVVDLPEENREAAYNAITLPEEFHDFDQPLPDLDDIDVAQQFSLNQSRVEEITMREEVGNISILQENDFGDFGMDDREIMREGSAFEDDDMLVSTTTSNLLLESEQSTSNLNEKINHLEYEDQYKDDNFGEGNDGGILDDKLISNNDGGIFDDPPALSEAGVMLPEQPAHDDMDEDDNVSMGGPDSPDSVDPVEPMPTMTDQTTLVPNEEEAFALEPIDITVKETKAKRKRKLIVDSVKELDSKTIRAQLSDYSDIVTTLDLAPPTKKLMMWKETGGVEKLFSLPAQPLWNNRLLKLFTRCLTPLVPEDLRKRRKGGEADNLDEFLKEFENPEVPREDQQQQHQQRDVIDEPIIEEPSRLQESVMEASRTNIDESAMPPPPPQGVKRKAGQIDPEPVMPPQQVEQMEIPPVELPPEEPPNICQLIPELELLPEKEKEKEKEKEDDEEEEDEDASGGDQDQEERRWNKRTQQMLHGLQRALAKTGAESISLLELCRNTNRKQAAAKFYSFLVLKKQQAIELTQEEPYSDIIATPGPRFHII
UniProt Q9UQE7: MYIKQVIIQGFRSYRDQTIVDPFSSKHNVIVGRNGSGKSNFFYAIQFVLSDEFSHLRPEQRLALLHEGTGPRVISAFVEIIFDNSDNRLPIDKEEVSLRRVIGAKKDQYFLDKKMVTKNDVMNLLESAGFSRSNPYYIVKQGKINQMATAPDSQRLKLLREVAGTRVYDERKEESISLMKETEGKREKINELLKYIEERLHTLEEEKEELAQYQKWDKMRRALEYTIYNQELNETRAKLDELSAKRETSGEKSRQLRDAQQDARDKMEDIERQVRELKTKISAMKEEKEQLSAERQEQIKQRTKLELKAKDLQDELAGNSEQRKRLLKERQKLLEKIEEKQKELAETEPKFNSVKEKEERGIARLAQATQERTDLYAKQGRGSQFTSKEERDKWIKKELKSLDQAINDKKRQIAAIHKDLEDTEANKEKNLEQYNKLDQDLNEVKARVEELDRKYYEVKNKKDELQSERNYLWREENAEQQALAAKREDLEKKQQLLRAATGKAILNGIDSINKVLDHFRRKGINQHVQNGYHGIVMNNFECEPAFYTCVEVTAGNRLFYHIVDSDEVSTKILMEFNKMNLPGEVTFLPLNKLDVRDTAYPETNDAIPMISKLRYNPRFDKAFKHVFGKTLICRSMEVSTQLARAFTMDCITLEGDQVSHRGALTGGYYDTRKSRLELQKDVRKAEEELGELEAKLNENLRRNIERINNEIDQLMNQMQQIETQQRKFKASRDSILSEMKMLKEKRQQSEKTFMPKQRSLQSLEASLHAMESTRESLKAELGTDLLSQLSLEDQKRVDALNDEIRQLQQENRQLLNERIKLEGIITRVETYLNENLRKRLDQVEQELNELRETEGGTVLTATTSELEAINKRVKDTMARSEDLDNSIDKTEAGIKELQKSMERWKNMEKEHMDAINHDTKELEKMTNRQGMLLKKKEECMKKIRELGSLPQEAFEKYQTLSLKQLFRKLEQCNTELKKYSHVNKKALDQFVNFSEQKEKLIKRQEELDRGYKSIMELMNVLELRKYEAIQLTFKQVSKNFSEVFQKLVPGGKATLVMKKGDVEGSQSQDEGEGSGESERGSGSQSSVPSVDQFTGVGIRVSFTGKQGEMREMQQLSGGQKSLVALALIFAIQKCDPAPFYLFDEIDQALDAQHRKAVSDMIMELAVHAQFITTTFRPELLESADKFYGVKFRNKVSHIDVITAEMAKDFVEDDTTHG

In article PMC12759081:

Biological target: Flag-Sororin (human) (UniProt Q96FF9)
Assay: affinity purification with mass spectrometry; Flag-Sororin overexpressed in HEK293F cells, precipitated with anti-Flag M2 agarose (4 h, 4 °C), eluted with Flag peptide, eluate analysed by mass spectrometry

binding | Substance
binds | RAD21 (from UniProt O60216 1-631)
binds | SMC3 (from UniProt Q9UQE7 1-1217)

These are yes or no findings as the source states them, for the method shown. In cells and extracts the contact can be indirect. Here binding means that the protein was enriched with, or labelled near, the bait; the list need not be complete.
